Measurements reported in US20180037943.

What was measured:
[1] = system: T1, Protelomerase VP58.5 (gp40) (Vibrio parahaemolyticus phage VP58.5); assay: enzyme reaction in vitro; conditions: purified recombinant protein, protein details: produced in-house
T1 sequence: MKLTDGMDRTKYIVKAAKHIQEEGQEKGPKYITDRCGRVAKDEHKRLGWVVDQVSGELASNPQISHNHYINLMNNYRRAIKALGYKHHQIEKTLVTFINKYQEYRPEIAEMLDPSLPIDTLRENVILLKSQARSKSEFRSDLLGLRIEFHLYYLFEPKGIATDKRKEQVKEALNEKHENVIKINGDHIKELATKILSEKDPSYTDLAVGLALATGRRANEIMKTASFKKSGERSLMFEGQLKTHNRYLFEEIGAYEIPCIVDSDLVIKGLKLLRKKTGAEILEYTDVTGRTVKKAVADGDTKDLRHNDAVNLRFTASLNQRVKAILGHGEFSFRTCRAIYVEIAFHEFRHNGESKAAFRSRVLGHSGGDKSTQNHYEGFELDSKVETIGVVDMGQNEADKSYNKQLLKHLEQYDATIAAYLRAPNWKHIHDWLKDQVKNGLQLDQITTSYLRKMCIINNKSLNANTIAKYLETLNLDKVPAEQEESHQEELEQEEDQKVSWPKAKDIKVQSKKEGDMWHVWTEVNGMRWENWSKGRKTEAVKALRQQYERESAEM

[2] = biological target: T2, Protelomerase TelN (Escherichia coli bacteriophage N15) (UniProt Q77WP1); assay: enzyme reaction in vitro; conditions: purified recombinant protein, protein details: produced in-house
T2 sequence (limits assumed): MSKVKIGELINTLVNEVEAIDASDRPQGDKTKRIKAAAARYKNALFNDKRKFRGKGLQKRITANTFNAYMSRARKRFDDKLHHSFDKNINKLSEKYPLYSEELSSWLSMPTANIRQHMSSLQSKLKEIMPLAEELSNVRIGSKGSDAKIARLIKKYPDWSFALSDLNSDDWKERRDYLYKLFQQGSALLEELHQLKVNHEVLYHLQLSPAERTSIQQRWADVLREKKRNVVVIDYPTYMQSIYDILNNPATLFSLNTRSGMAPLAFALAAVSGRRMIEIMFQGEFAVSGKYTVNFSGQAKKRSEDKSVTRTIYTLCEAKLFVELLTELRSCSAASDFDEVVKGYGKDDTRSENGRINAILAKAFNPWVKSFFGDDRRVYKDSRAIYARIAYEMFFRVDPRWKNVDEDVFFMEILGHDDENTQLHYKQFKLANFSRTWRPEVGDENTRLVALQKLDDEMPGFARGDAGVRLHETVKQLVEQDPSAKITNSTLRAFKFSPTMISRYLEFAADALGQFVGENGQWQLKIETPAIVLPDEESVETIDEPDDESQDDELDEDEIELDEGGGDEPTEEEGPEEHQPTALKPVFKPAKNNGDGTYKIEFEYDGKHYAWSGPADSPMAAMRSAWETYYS

AACCTGCACAGGTGTACATATAGTCTAATTAGACTATATGTACACCTGTGCAGGTTACTAGTAGATCTGCTAGCCGCCAG (double strand) [1.107V end of full sized linear product (VP58.5 site)]
activity on this sequence ([1]; 1 uM VP58.5 (0.5 uM with TelN), IAB buffer with Mg, 37 C 15-30 min, hairpin released, label: 5' Alexa Fluor 488): active

GGGCGGGGGTCGTTGGGCGGTCAGCCAGGCGGGCCATTTACCGTAAGTTATGTAACGCGGAACTCCATATATGGGCTATGAACTAATGACCCCGTAATTGATTACTACTTAAGTGTACATATCAGCACACAATAGTCCATTATACGCGCGTATAATGGGCAATTGTGTGCTGATATGTACAAGATCTACATGTGAGCTTT (double strand) [3.2-templated extension product (TelN site)]
activity on this sequence ([2]; 0.5 uM TelN, 37 C 15-30 min, released dbDNA T5 exonuclease resistant): active

TACTAGTCATCAACCTGCACAGGTGTACATATAGTCTAATTAGACTATATGTACACCTGTGCAGGTTTACTAGGCACCACCTGCAGGAATCTACTAGGCCGCCGCAACCAAACTTGGATCGGTGCACATGTCGAATACTAGGATTCCTGCAGGTGGTGC [DNA-V loopback-extended]
activity on this sequence ([1]; 2.5 uM VP58.5, IAB plus NEB buffer 4, 37 C 15 min, T5-resistant circular product, folded or branched DNA): active

TACTAGTCATCTATCAGCACACAATTGCCCATTATACGCGCGTATAATGGACTATTGTGTGCTGATATACTAGGCACCACCTGCAGGAATCTACTAGGCCGCCGCAACCAAACTTGGATCGGTGCACATGTCGAATACTAGGATTCCTGCAGGTGGTGC [DNA-T loopback-extended]
activity on this sequence ([2]; 2.5 uM TelN, IAB plus NEB buffer 4, 37 C 15 min, T5-resistant circular product, folded or branched DNA): active

TATCAGCACACAATTGCCCATTATACGCGCGTATAATGGACTATTGTGTGCTGATATGTACACTTAAGTAGTAATCAAT (double strand) [1.120 end of full sized linear product (TelN site)]
activity on this sequence ([2]; 1 uM TelN (0.5 uM with VP58.5), IAB buffer with Mg, 37 C 15-30 min, hairpin released, label: 5' Alexa Fluor 488): active

TATCAGCACACAATTGCCCATTATACGCGCGTATAATGGGCAATTGTGTGCTGATATGTACACTTAAGTAG (double strand) [PEGS1-derived extension product (TelN site)]
activity on this sequence ([2]; 400 nM TelN, 1x TLG buffer pH 7.4, 30 C 15 min, 1.15 ug/ml product released, closed ends ExoIII resistant, label: 5' biotin-C6): active

Tags and fusion partners may be left off the protein sequences shown. The exact form of at least one protein or probe is not confirmed.
